One substance from publication PMC3091666 can be followed below.

Amino acid sequences for entries named in this document (tags omitted).
UniProt P05852: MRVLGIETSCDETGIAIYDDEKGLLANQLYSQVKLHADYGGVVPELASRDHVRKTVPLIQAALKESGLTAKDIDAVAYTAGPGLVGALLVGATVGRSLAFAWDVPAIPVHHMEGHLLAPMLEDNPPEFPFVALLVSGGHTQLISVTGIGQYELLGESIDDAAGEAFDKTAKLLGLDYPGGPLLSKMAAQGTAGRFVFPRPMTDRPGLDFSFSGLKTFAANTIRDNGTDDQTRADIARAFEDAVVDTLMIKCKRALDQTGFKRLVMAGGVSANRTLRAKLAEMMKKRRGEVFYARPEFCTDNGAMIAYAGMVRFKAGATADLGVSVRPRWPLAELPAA

No constants are given. Whether binding was seen depends on the method and setting. Some entries that bind do so weakly or less than the wild type.

This test concerns the target E. coli YgjD (E. coli K-12) (UniProt P05852). Kind of test: two-hybrid; yeast two-hybrid; baits fused to the Gal4 DNA binding domain, pGADT7g vector as negative control for autoactivation; conducted as described by Rajagopala et al. 2007.

As for “E. coli YeaZ (from UniProt P76256 1-231)”, the binding entry is reported as “binds”.
